The source of these data is PubChem BioAssay AID624256 (NMMLSC, 2012).

The structures appear in SMILES notation. This is one part of the list.

The assay in a line: induction of myeloid progenitor differentiation, primary screen, cell-based, flow cytometry, MLPCN library (AID 624256).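 Further: cells exposed to compound for four days before flow analysis.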 The settings on record: ER-HoxA9 myeloid progenitors, lysozyme-GFP differentiation, measured here: differentiation confirmed by MAC1 staining, at 10 µM, stronger effect = higher value. On the technique in general: A flow cytometer gives signals particle by particle.
In the case of `O=[N+]([O-])c1cc([N+](=O)[O-])c(-n2nnc3ccccc32)c([N+](=O)[O-])c1`, the GFP+ MAC1+ double positive was 0.2%.
`CCOP(=O)(NC(=NC(C)c1ccccc1)NC(C)c1ccccc1)OCC` (stereo not given) gave a GFP+ MAC1+ double positive of 0.7%.
In the case of `Nc1ccc(CCCCOc2ccccc2)cc1.O=[N+]([O-])c1cc([N+](=O)[O-])c(O)c([N+](=O)[O-])c1` it was 1.6%; in that of `O=P1(Nc2ccccn2)COc2ccccc2OC1`, 1.7%; in that of `CCC1=CC2Cc3nc4ccc(Cl)cc4c(N)c3C(C1)C2` (stereo not given), 0.5%.
As for `O=C(O)C(O)c1ccc(N(CCCl)CCCl)cc1.c1ccncc1` (stereo not given), the GFP+ MAC1+ double positive was 1.5%.
The result for `CCOP(=O)(Nc1ccc(C)cn1)OCC` reads 0.3%.
The result for `CN(CCCl)Cc1cc(Cl)c(NC2=NCCN2)c(Cl)c1` reads 4.4%; that for `CC(C)(C)C(=O)NC(Sc1ncccn1)C(Cl)(Cl)Cl` (stereo not given), 0.2%.
The compound `O=P1(N(CCCl)CCCl)NCCC(C(F)(F)F)O1` (stereo not given) registered a GFP+ MAC1+ double positive of 1.1%.
In the case of `Clc1n[nH]nc1-c1nn[nH][15n]1` it was 0.9%; in that of `CN(Cc1cccnc1)C(=O)COc1ccc(Cl)c(Cl)c1.O=[N+]([O-])c1cc([N+](=O)[O-])c(O)c([N+](=O)[O-])c1`, 0.6%.
In the case of `O=[N+]([O-])c1cc([N+](=O)[O-])c(-c2cnn(-c3ccccc3)c2)c([N+](=O)[O-])c1`, the GFP+ MAC1+ double positive was found to be 0.8%.
The result for `COc1ccccc1CNC(=O)COC(=O)C(O)(c1ccccc1)c1ccccc1` reads 0.2%; that for `Cc1ccc(S(=O)(=O)N(CCCN)CCCc2c(C)nc(N)[nH]c2=O)cc1.O=[N+]([O-])c1cc([N+](=O)[O-])c(O)c([N+](=O)[O-])c1`, 0.5%; that for `CC(C)/C=N\N=C(\N)N[N+](=O)[O-]`, 0.2%.
The compound `CN(C(=O)Cc1ccc(Cl)c(Cl)c1)[C@@H]1CCCC[C@H]1N1CCCC1` showed a GFP+ MAC1+ double positive of 4.1%.
For the compound `CC1(CBr)Cn2c(nc3ccccc3c2=O)S1` (stereo not given), the GFP+ MAC1+ double positive was 1%.
The result for `Cc1nc2ccc3ccccc3c2s1.O=[N+]([O-])c1cc([N+](=O)[O-])c(O)c([N+](=O)[O-])c1` reads 0.3%; that for `CC1CCC(C(C)C)C(OP(=O)(Nc2ccccn2)c2ccccc2)C1` (stereo not given), 0.1%; that for `Cc1ccc(C(=O)OC2CN3CCC2CC3)cc1` (stereo not given), 0.5%.
In the case of `Cc1nn(-c2ccccc2)c2c1P(=O)(N1CCOCC1)N(C)C(c1ccccc1)=N2` (stereo not given) it was 0.8%; in that of `COc1cc(C2NCCC3(OCCO3)C2(C)C)cc(OC)c1OC.O=[N+]([O-])c1cc([N+](=O)[O-])c(O)c([N+](=O)[O-])c1` (stereo not given), 0.7%.
The result for `CCOC(=O)C(CC)C1=NC(C)(C)Cc2ccccc21.O=[N+]([O-])c1cc([N+](=O)[O-])c(O)c([N+](=O)[O-])c1` (stereo not given) reads 0.2%; that for `CN(C)C1(CNC(=O)c2ccc(S(C)(=O)=O)cc2)CCCCC1`, 0.6%.
